# Results taken from PubChem BioAssay AID248 (DTP/NCI, 2004).
# The list does not hold the whole screen: it gathers tests that were run many times, whatever their T/C, doses with no T/C, and many T/C values between a quarter and a half above the control. Further doses and runs are listed elsewhere. T/C gives the treated animals as a percentage of the vehicle group. Some doses have a count of surviving animals in place of a T/C: the source files T/C as zero there, which appears to mark a toxic dose or a test without result, not a measured value. Some doses without a T/C left all or most animals alive at the check, yet need not have been tolerated: the source hardly ever lists a survival T/C far under the control, and the zero likely stands for such cases as well. Counts of survivors are from the toxicity check (mostly the fifth day) where no day follows; animals may have died later. Schedule codes are those of the source, taken here to give the interval after Q, in days (D) or hours (H), and the number of doses after X. Some entries were tested several times; the values are given in rising order. For survival time, this PubChem deposit counts one and a half times the control or more as active, and values a quarter to a half above the control carry no call in these data; other NCI protocols may use other cut-offs.
# Test system: L1210 leukemia ip in BDF1 mice, survival T/C
# Assay: NCI In Vivo Anticancer Drug Screen. Data for tumor model L1210 Leukemia (intraperitoneal) in B6D2F1 (BDF1) mice
# Conditions: T/C endpoint: mean survival time, higher T/C = longer survival
# [1] = dose: 300.0 mg/kg/injection, schedule: Q01DX001 (ip), vehicle: saline
# [2] = dose: 100.0 mg/kg/injection, schedule: Q01DX009 (ip), vehicle: Klucel (hydroxypropylcellulose) (HPC)
# [3] = dose: 200.0 mg/kg/injection, schedule: Q04DX003 (ip), vehicle: saline
# [4] = dose: 400.0 mg/kg/injection, schedule: Q04DX003 (ip), vehicle: saline
# [5] = dose: 50.0 mg/kg/injection, schedule: Q01DX009 (ip), vehicle: Klucel (hydroxypropylcellulose) (HPC)
# [6] = dose: 200.0 mg/kg/injection, schedule: Q01DX009 (ip), vehicle: Klucel (hydroxypropylcellulose) (HPC)
# [7] = dose: 400.0 mg/kg/injection, schedule: Q01DX009 (ip), vehicle: Klucel (hydroxypropylcellulose) (HPC)
# [8] = dose: 400.0 mg/kg/injection, schedule: Q04DX003 (ip), vehicle: Klucel (hydroxypropylcellulose) (HPC)
# [9] = dose: 400.0 mg/kg/injection, schedule: Q04DX002 (ip), vehicle: saline with Tween-80
# [10] = dose: 400.0 mg/kg/injection, schedule: Q04DX003 (ip), vehicle: saline with Tween-80
# [11] = dose: 100.0 mg/kg/injection, schedule: Q01DX009 (ip), vehicle: saline
# [12] = dose: 200.0 mg/kg/injection, schedule: Q01DX009 (ip), vehicle: saline
# [13] = dose: 100.0 mg/kg/injection, schedule: Q04DX003 (ip), vehicle: Klucel (hydroxypropylcellulose) (HPC)
# [14] = dose: 200.0 mg/kg/injection, schedule: Q04DX003 (ip), vehicle: Klucel (hydroxypropylcellulose) (HPC)
# [15] = dose: 100.0 mg/kg/injection, schedule: Q04DX003 (ip), vehicle: saline
# [16] = dose: 80.0 mg/kg/injection, schedule: Q01DX001 (ip), vehicle: saline
# [17] = dose: 100.0 mg/kg/injection, schedule: Q01DX001 (ip), vehicle: saline
# [18] = dose: 200.0 mg/kg/injection, schedule: Q01DX001 (ip), vehicle: saline
# [19] = dose: 400.0 mg/kg/injection, schedule: Q01DX001 (ip), vehicle: saline
structure (smiles),measurement,setting,value
CCc1nc(C#N)c(N)o1,survivor count,"dose: 75.0 mg/kg/injection, schedule: Q01DX001 (ip), vehicle: saline",2 of 6
same,survivor count,"dose: 150.0 mg/kg/injection, schedule: Q01DX001 (ip), vehicle: saline",0 of 6
same,survivor count,[1],0 of 6
Oc1cc(CN2CCCC2)c(O)cc1CN1CCCC1,survivor count,"dose: 300.0 mg/kg/injection, schedule: Q01DX001 (ip), vehicle: carboxymethylcellulose (CMC)",0 of 6
CCc1ccc(NC2=NCCO2)cc1,survivor count,[2],1 of 6
same,survivor count,[3],5 of 6
same,survivor count,[4],1 of 6
NC(=S)N/N=C/c1cc2c(cc1[N+](=O)[O-])OCO2,survivor count,"dose: 400.0 mg/kg/injection, schedule: Q01DX001 (ip), vehicle: carboxymethylcellulose (CMC)",0 of 4
CCOC(=O)c1ccc(NC(=O)Nc2cccc(Cl)c2)cc1,survivor count,[5],3 of 6
same,survivor count,[2],0 of 6
same,survivor count,[6],6 of 6
same,survivor count,[7],0 of 6
O=C(O)/C=C/S(=O)(=O)Cc1ccccc1,survivor count,[8],3 of 6
NC(N)=N/N=C/c1cc(Br)ccc1O,survivor count,[1],0 of 6
CC(C)(C)CC(O)Cc1ccccc1 (stereo not given),survivor count,[9],3 of 3
N=c1ncn(C2OC(COP(=O)(O)O)C(O)C2O)c2nc[nH]c12 (stereo not given),T/C,"dose: 3.13 mg/kg/injection, schedule: Q01DX005 (ip), vehicle: water",129 % of control
CCCCOP(=O)(OCCCC)N(C)c1ccccc1,survivor count,"dose: 200.0 mg/kg/injection, schedule: Q04DX002 (ip), vehicle: saline with Tween-80",1 of 3
same,survivor count,[9],0 of 3
CC(C)c1ccc(C(c2ccc(C(C)C)cc2)c2ccc(C(C)C)cc2)cc1,survivor count,"dose: 400.0 mg/kg/injection, schedule: Q01DX001 (ip), vehicle: saline with Tween-80",6 of 6
c1cc2c3c(c1)ncn3CCC2,survivor count,[10],1 of 6
CCCCCCCCc1ccc(NNC(N)=S)cc1,T/C,"dose: 12.5 mg/kg/injection, schedule: Q01DX009 (ip), vehicle: saline",125 % of control
same,survivor count,"dose: 50.0 mg/kg/injection, schedule: Q01DX009 (ip), vehicle: saline",0 of 3
same,survivor count,[11],0 of 3
same,survivor count,[12],0 of 3
CCCCCC[Se][Se]CCCCCC,survivor count,"dose: 25.0 mg/kg/injection, schedule: Q01DX009 (ip), vehicle: Klucel (hydroxypropylcellulose) (HPC)",5 of 6
same,survivor count,"dose: 25.0 mg/kg/injection, schedule: Q04DX003 (ip), vehicle: Klucel (hydroxypropylcellulose) (HPC)",6 of 6
same,survivor count,[5],5 of 6
same,survivor count,[2],0 of 6
same,survivor count,[13],1 of 6 and 2 of 6
same,survivor count,[14],0 of 6
same,survivor count,[8],0 of 6
CCCCCCCCC[n+]1ccc(C#N)cc1,survivor count,"dose: 75.0 mg/kg/injection, schedule: Q01DX001 (ip), vehicle: other",1 of 6
same,survivor count,"dose: 150.0 mg/kg/injection, schedule: Q01DX001 (ip), vehicle: other",0 of 6
same,survivor count,"dose: 300.0 mg/kg/injection, schedule: Q01DX001 (ip), vehicle: other",0 of 6
O=C(C1C2C=CC(C2)C1C(=O)N1CCCCC1)N1CCCCC1 (stereo not given),survivor count,[10],0 of 3
CCCCNC(=S)NCCCC,survivor count,[7],0 of 6
same,survivor count,"dose: 400.0 mg/kg/injection, schedule: Q04DX002 (ip), vehicle: Klucel (hydroxypropylcellulose) (HPC)",1 of 3
CCC[CH2][Sn]([Br])([CH2]CCC)[CH2]CCC,survivor count,"dose: 25.0 mg/kg/injection, schedule: Q01DX009 (ip), vehicle: carboxymethylcellulose (CMC)",0 of 6
same,survivor count,"dose: 25.0 mg/kg/injection, schedule: Q04DX003 (ip), vehicle: carboxymethylcellulose (CMC)",1 of 6
same,survivor count,"dose: 50.0 mg/kg/injection, schedule: Q04DX002 (ip), vehicle: carboxymethylcellulose (CMC)",0 of 6 and 1 of 3
CCOC(=O)c1ccc(NCC(=N)N)cc1,survivor count,"dose: 400.0 mg/kg/injection, schedule: Q01DX001 (ip), vehicle: saline sonified",1 of 6
NCCCS,survivor count,[1],2 of 6
CCOC(=O)c1ccc2ccccc2n1,survivor count,[1],2 of 6
Cc1cc(C)c(NC(=O)c2c(Cl)c(Cl)c(Cl)c(Cl)c2C(=O)O)c(C)c1,survivor count,[6],4 of 6
same,survivor count,[7],0 of 6
O=[N+]([O-])OCc1c(Cl)nc(Cl)c(Cl)c1Cl,survivor count,"dose: 80.0 mg/kg/injection, schedule: Q01DX009 (ip), vehicle: Klucel (hydroxypropylcellulose) (HPC)",2 of 6
same,survivor count,[8],0 of 6
COc1ccccc1N1CCN(CCCC(=O)c2ccc(F)cc2)CC1,survivor count,[6],3 of 6
same,survivor count,[8],3 of 4
Cc1ccc(C(C)NC2=NCCO2)c(C)c1 (stereo not given),survivor count,"dose: 200.0 mg/kg/injection, schedule: Q04DX003 (ip), vehicle: saline with Tween-80",1 of 6
same,survivor count,[10],0 of 6
CN1CC(CO)C=C2c3cccc4[nH]cc(c34)CC21 (stereo not given),survivor count,"dose: 400.0 mg/kg/injection, schedule: Q01DX009 (ip), vehicle: alcohol",0 of 6
CCCCCCCCCCCCCCOS(=O)(=O)O,survivor count,[1],0 of 6
C=CCN(C#N)CC=C,survivor count,[11],0 of 6
same,survivor count,[15],0 of 6
same,survivor count,[12],0 of 6
same,survivor count,[3],0 of 6
same,survivor count,"dose: 400.0 mg/kg/injection, schedule: Q01DX009 (ip), vehicle: saline",0 of 6
same,survivor count,[4],0 of 6
COc1cccc(C[P+](C/C=C/c2ccccc2)(c2ccccc2)c2ccccc2)c1,survivor count,"dose: 50.0 mg/kg/injection, schedule: Q04DX003 (ip), vehicle: Klucel (hydroxypropylcellulose) (HPC)",0 of 6 and 1 of 6
same,survivor count,[13],1 of 6
same,survivor count,[14],0 of 6
same,survivor count,[8],0 of 6
O=Cc1ccc([N+](=O)[O-])o1,survivor count,"dose: 50.0 mg/kg/injection, schedule: Q04DX002 (ip), vehicle: other",1 of 3
same,survivor count,[16],2 of 6
same,survivor count,[17],0 of 6
same,survivor count,"dose: 100.0 mg/kg/injection, schedule: Q04DX002 (ip), vehicle: other",2 of 3
same,survivor count,[18],0 of 6
same,survivor count,"dose: 200.0 mg/kg/injection, schedule: Q04DX002 (ip), vehicle: other",0 of 3
same,survivor count,[19],0 of 6
same,survivor count,"dose: 400.0 mg/kg/injection, schedule: Q04DX002 (ip), vehicle: other",0 of 3
CS(=O)(=O)Nc1ccccc1N,survivor count,[7],2 of 6
CN=C(N)NCCCCCCCCNC(N)=NC,survivor count,"dose: 40.0 mg/kg/injection, schedule: Q01DX001 (ip), vehicle: saline",0 of 4
same,survivor count,"dose: 50.0 mg/kg/injection, schedule: Q01DX001 (ip), vehicle: saline",0 of 4
same,survivor count,[16],0 of 4
same,survivor count,[17],0 of 4
same,survivor count,[18],0 of 4
same,survivor count,[19],0 of 4
[CH3][Sn]([CH3])([CH3])[O][N+](=O)[O-],survivor count,"dose: 6.0 mg/kg/injection, schedule: Q04DX003 (ip), vehicle: saline",0 of 6
same,survivor count,"dose: 12.5 mg/kg/injection, schedule: Q04DX003 (ip), vehicle: saline",0 of 6
same,survivor count,"dose: 25.0 mg/kg/injection, schedule: Q04DX003 (ip), vehicle: saline",0 of 6
same,survivor count,"dose: 50.0 mg/kg/injection, schedule: Q04DX003 (ip), vehicle: saline",0 of 6
same,survivor count,[15],0 of 6
same,survivor count,[3],0 of 6
same,survivor count,[4],0 of 6
